# Data from the supplement of paper PMC3334620.
# Over roughly 33,000 sequences, “E-score (-0.5 to 0.5)” has its median near -0.0014; the highest 2% begin near 0.25. The list shows a part of the results.
# Biological target: T1, Cad1 (UniProt P24813)
# T1 sequence: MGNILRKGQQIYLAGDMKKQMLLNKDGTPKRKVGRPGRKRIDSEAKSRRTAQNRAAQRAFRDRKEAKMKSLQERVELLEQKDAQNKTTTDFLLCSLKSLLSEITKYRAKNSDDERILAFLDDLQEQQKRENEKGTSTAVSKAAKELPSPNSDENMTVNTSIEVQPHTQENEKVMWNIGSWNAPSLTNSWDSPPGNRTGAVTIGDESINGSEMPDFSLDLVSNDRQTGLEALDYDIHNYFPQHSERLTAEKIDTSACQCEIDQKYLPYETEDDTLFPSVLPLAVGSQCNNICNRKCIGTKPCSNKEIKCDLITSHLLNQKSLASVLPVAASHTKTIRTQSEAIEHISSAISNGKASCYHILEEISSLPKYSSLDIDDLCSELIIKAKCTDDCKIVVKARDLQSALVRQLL
# Experiment: PBM E-score (8-mer binding enrichment) (E-score (-0.5 to 0.5)); higher = stronger / more preferred TF binding
# Conditions: protein concentration: 100 nM; construct: GST-full length
# Procedure: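 Universal 'all 10-mer' protein binding microarrays (Agilent AMADID 015681) probed with GST-tagged S. cerevisiae TFs (full-length or DBD) made by in vitro transcription/translation (PURExpress), about 100-200 nM. Bound TF was detected with fluorescent anti-GST. Each ungapped 8-mer (which stands for itself and its reverse complement) is scored by the PBM enrichment score (E-score), a modified Wilcoxon-Mann-Whitney statistic from -0.5 to +0.5, computed with the Universal PBM Analysis Suite. Scale: above 0.35 generally sequence-specific binding.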
row,Sequence,PBM E-score
1,GCGATGAA,0.108
2,CTTCAAAC,0.145
3,AGCTAGTA,0.0145
4,AACACGGT,-0.0697
5,GAGGAGGC,-0.236
6,ATGGTAGA,0.0551
7,CTGAAACA,0.0746
8,AGTATTTA,0.16
9,AGCTAGCT,0.162
10,CTAACGGA,0.294
11,GGAACATA,0.0521
12,CGATGTAG,-0.117
13,CTTTCTTC,-0.034
14,AACAAATT,0.228
15,AGGATACG,-0.141
16,AGAAATAC,0.0988
17,CCTCGCGA,0.121
18,AGGCGGTC,-0.224
19,ACAAGTGG,0.0151
20,CGATGAAC,0.102
21,ACATGCAA,-0.129
22,ATCCGTAC,0.177
23,GACAATCA,0.0526
24,CTTAAACC,-0.109

# Quoted at random: 3 entries already listed.
row,Sequence,PBM E-score
10,CTAACGGA,0.294
24,CTTAAACC,-0.109
9,AGCTAGCT,0.162

# (listing goes on)

row,Sequence,PBM E-score
1,GGACCACC,0.0199
2,GGCCCACA,0.0128
3,CGAGTAAG,0.146
4,CCTGTTTA,0.0698
5,CACGTGGC,-0.06
6,GTAGTCAC,-0.193
7,CTAGAGGA,-0.272
8,AGAGCTAG,0.0182
9,GCCTGCAA,0.0411
10,AGTGTAGC,-0.0088
11,ACTTCGAT,0.0731
12,CGCTACTC,0.0265
13,AAGGGGTG,-0.176
14,AAAGAATC,-0.0708
15,GATCTGCC,0.001
16,ATACGATC,0.11
17,CCGTTCCC,-0.0828
18,ACAGCAAT,0.11
19,GAGCAGCA,0.0911
20,AGCATGGG,-0.341
21,GAATGAGA,0.117
22,TTGCGAAA,0.158
23,AAGTTTCC,0.122
24,AAGCAAGC,0.0372

# A section of the results above:
row,Sequence,PBM E-score
6,GTAGTCAC,-0.193
7,CTAGAGGA,-0.272
8,AGAGCTAG,0.0182
9,GCCTGCAA,0.0411

# (continued)

row,Sequence,PBM E-score
1,AGTGAGCG,0.129
2,GTAAATAC,0.0213
3,GGAGTGCA,-0.00305
4,AATGTGCA,0.0742
5,GAAAAGTA,0.049
6,CGCTTACA,0.208
7,GCCCATAA,-0.19
8,GAGACTGA,-0.0515
9,GAATCGAC,0.176
10,CTAACCTA,-0.129
11,AATTACCA,0.241
12,GGGCAGGA,0.065
13,AAGCTTCC,-0.0751
14,ATTATGTC,0.181
15,TGTAGCAA,-0.0131
16,GCTCACCA,-0.187
17,CTGTAGCC,-0.0863
18,ACCCTGCA,0.117
19,CAACATGG,-0.0363
20,ATGGCACG,-0.238
21,ATCGGCGA,-0.112
22,AACGATTA,0.0716
23,ATACGTAT,0.298
24,ATAGATTC,-0.0176

row,Sequence,PBM E-score
1,GCTCCCCA,-0.383
2,CTTGGGCA,0.103
3,AAAAGTGT,-0.074
4,GGGACGTA,-0.209
5,GCGTAGCA,-0.012
6,TAACCCTA,-0.113
7,ACCGCCGT,-0.0802
8,CATGCATG,0.252
9,AGTGGCCA,-0.00136
10,AACTCATT,0.0357
11,TAGTTTAA,0.168
12,GACCGGGC,-0.104
13,CGAGACTC,0.0936
14,GAGGTCGC,-0.137
15,CTAAGTAG,0.0818
16,AGTACCGG,-0.179
17,AGAATACC,0.136
18,GTATTGGA,0.00944
19,GATTGAGA,0.115
20,AAGGTTGG,-0.163
21,CTTAGTCA,0.38
22,AAGCTACG,-0.0714
